## Primary screen of a compound library

Protein sequences, listed by entry. Tags and fused reporters are not part of them. Residues count along the entry.
UniProt Q4DA54, 1-478: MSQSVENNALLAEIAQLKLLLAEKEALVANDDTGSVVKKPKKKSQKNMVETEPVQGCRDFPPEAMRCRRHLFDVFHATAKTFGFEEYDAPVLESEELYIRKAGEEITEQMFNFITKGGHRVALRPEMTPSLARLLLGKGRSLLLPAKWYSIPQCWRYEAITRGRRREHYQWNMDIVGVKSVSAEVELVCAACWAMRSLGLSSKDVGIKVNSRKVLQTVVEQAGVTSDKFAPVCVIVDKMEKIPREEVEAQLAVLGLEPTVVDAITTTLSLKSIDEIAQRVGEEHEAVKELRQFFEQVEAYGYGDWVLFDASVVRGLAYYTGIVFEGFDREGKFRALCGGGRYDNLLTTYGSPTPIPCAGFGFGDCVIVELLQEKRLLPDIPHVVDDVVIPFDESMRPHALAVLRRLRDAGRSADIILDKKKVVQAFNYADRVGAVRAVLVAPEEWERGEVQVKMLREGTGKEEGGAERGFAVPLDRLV
UniProt A4I591, 1-473: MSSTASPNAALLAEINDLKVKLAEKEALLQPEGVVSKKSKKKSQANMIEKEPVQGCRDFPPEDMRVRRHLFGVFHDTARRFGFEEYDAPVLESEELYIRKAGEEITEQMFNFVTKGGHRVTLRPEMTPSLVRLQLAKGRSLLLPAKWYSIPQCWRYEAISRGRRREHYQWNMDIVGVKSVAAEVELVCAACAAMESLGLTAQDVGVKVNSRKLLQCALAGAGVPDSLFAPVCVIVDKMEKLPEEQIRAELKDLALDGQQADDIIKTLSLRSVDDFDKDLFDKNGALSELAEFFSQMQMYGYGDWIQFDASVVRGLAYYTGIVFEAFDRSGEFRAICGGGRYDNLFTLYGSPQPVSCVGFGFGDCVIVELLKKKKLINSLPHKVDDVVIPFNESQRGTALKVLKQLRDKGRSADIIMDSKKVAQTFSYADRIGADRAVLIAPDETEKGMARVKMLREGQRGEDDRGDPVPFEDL

From ChEMBL document CHEMBL3988442, “University of Dundee, Small-Polar-MMV Screening Library” (2021).

T. brucei: 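Whole-parasite assay of Trypanosoma brucei over 72 hours; the read-out is not stated. Tested at 30 µM. Direction is inferred from retests: higher values go with stronger inhibition. Values scatter widely below zero; nearly all retest evidence comes from the higher of the two concentrations used. About 64,000 compounds were tested under these conditions; 1.5% (about 940) showed 50% or more at least once.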
TcHisRS: 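Histidine-tRNA ligase, Trypanosoma cruzi CL Brener (UniProt Q4DA54). Enzyme assay of histidyl-tRNA synthetase; the read-out is not stated. Tested at 30 µM. Higher reads as stronger inhibition (inferred: compounds with an IC50 in retests scored well above the rest). Size under these conditions: about 69,000 compounds, about 31 of them at 50% or above in at least one test.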
LiHisRS: 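Histidine-tRNA ligase, Leishmania infantum (UniProt A4I591). Enzyme assay of histidyl-tRNA synthetase; the read-out is not stated. Compounds at 30 µM. Direction is inferred from retests: higher values go with stronger inhibition. The assay is labelled LdHisRS but filed under L. infantum. Size under these conditions: about 69,000 compounds, about 410 of them at 50% or above in at least one test.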

Results are given as percent effect. The controls that fix the scale are not given in the record; negative values are as filed. The compounds are a random part of those screened.

{"smiles": "CCS(=O)(=O)CCNC(=O)NC(C)c1ccc(C)s1", "stereo": "centres unmarked", "T. brucei": -20.37, "TcHisRS": 10.1, "LiHisRS": 17.07}
{"smiles": "COc1cccc(CN(C)C(=O)CN2CCN(c3nccs3)CC2)c1", "T. brucei": 19.51, "TcHisRS": 18.39, "LiHisRS": 12.9}
{"smiles": "COc1c(C2CCCN2C(=O)c2cccnc2N(C)C)c(C)nn1C", "stereo": "centres unmarked", "TcHisRS": 2.564, "LiHisRS": 5.128}
{"smiles": "OC(CN1CCCc2ccc(F)cc21)Cn1cccn1", "stereo": "centres unmarked", "T. brucei": -26.84, "TcHisRS": 9.091, "LiHisRS": 8.901}
{"smiles": "CCN1CC(COC(=O)c2cc(C)nn2CC)CC1=O", "stereo": "centres unmarked", "T. brucei": -61.26, "TcHisRS": 0, "LiHisRS": 8.85}
{"smiles": "CN(C)C(=O)c1nn(C)c2c1CN(Cc1ccc(F)cc1)C2", "TcHisRS": 2.632, "LiHisRS": 11.29}
{"smiles": "COc1ccc(N2Cc3nc(N)ncc3C2=O)cc1", "T. brucei": -54.1, "TcHisRS": 3.727, "LiHisRS": 0}
{"smiles": "Cn1cc(N2CCCC(Nc3ccc4c(c3)CCCO4)C2=O)cn1", "stereo": "centres unmarked", "T. brucei": 7.525, "TcHisRS": 12.43, "LiHisRS": 24.66}
{"smiles": "c1nc(N2CCCC2Cn2cncn2)c2ccsc2n1", "stereo": "centres unmarked", "T. brucei": -24.54, "TcHisRS": 7.143, "LiHisRS": -4.959}
{"smiles": "Cc1nc(CN2CCOC(c3ccc(Cl)cc3)C2)oc1C", "stereo": "centres unmarked", "T. brucei": -41.62, "TcHisRS": -4.706, "LiHisRS": 3.968}
{"smiles": "COC(=O)CC(c1ccc(O)c(Cl)c1)c1oc(C)cc(=O)c1O", "stereo": "centres unmarked", "T. brucei": -7.459, "TcHisRS": 4.819, "LiHisRS": 17.95}
{"smiles": "[H][C@@]12COC[C@]1(c1nc(C)no1)CN(C(=O)COCC)C2", "T. brucei": -76.29}
{"smiles": "CC(C)C(NC(=O)c1nc(N2CCOCC2)ncc1Cl)c1cccs1", "stereo": "centres unmarked", "TcHisRS": 6.897, "LiHisRS": 15.38}
{"smiles": "CN1CCC(O)(CNCc2ccc(F)c(C(F)(F)F)c2)CC1", "T. brucei": -24.52, "TcHisRS": 6.897, "LiHisRS": 17.81}
{"smiles": "[H][C@@]12COC[C@]1(C(=O)N(C)Cc1ccccn1)CN(Cc1cnn(C)c1)C2", "T. brucei": 21}
{"smiles": "Cn1ccc2cc(C(=O)NC3CCS(=O)(=O)C3)ccc21", "stereo": "centres unmarked", "TcHisRS": 10.42, "LiHisRS": 22.92}
{"smiles": "COc1ncccc1CNC(=O)c1cc(Cl)ccn1", "T. brucei": 3.629, "TcHisRS": 7.331, "LiHisRS": 21.3}
{"smiles": "O=C(O)CC(O)(CC(=O)O)C(=O)O.c1cnc2[nH]nc(C3CCN(Cc4ccsc4)CC3)c2c1", "T. brucei": -1.78}
{"smiles": "COCCn1ccnc1C1CCCN(C(=O)CSc2nnc(C)o2)C1", "stereo": "centres unmarked", "T. brucei": -8.569, "TcHisRS": 2.679, "LiHisRS": 19.47}
{"smiles": "CCCC(=O)N1CCCC1(C)c1nc(C)no1", "stereo": "centres unmarked", "T. brucei": 0.7101, "TcHisRS": 7.576, "LiHisRS": 14.49}
{"smiles": "O=C(NCc1cc2n(n1)CCCNC2)C1(c2ccc(Cl)cc2)CCC1", "T. brucei": -13.22, "TcHisRS": 6.557, "LiHisRS": 21.92}
{"smiles": "Cc1cc(C)n(CCCN(CCN2CCOCC2)Cc2ccco2)n1", "T. brucei": -25.87, "TcHisRS": 7.463, "LiHisRS": 0}

2 of the entries, repeated:

- CCN1CC(COC(=O)c2cc(C)nn2CC)CC1=O (centres unmarked) | T. brucei: -61.26%; TcHisRS: 0%; LiHisRS: 8.85%
- O=C(O)CC(O)(CC(=O)O)C(=O)O.c1cnc2[nH]nc(C3CCN(Cc4ccsc4)CC3)c2c1 | T. brucei: -1.78%